Source: US5411707A, “Vacuum extractor incorporating a condenser column” (priority 1994, dated 1995)
Several values for one entry are separate records, joined by “and”; a condition that tells them apart may be missing. Identical values can stand only once.

Key:
[1] = Vacuum distillation recovery from spiked water and spiked soil, GC/MS (Table 2); conditions: 50 ppb, 10 min distillation, condenser -15° C.; for 5 G SOIL RECOVERY: 5 g soil + 1 ml water
[2] = Recovery of volatile organic analytes from spiked water and cod liver oil/water emulsion (Table 3); conditions: 10 min, condenser -10° C., ± one sigma; for Recovery, H2O/Oil 5 mL: 1 gram cod liver oil and 5 ml water emulsion; for Recovery, Water 5 mL: 5 mL water, relative to internal standard d3-vinylchloride; for Recovery, Water 20 mL: 20 mL water, relative to d3-vinylchloride; for Recovery, H2O/Oil 20 mL: 1 g cod liver oil and 20 ml water emulsion
[3] = Recovery of volatile organic analytes from spiked soil (Table 5); conditions: 50 ppb, condenser -10° C.; for Recovery, Soil/Oil: 5 g soil + 1 g cod liver oil, spiked using 0.2 ml water; for Recovery, Soil/Oil Water: 5 g soil + 1 g cod liver oil + water slurry
[4] = Method detection limits for volatile organic analytes in water (Table 6); conditions: 5 mL water, 4 ppb
[5] = Method detection limits for volatile organic analytes in soil (Table 7); conditions: 4 ppb, average of three nonconsecutive-day studies, values marked ^c: MDL exceed concentration studies

Row | Structure (SMILES) | 5 G SOIL RECOVERY [1] | 5 ML WATER RECOVERY [1] | other results
1 | Oc1ccccc1F [2-Fluorophenol] | 8.2% | 5.4% | 
2 | ClCCOCCCl [bis(2-Chloroethyl) ether] | 19.5% | 10.6% | 
3 | Nc1ccccc1 [Aniline] | 9.2% | 17.2% | 
4 | Oc1ccccc1Cl [2-Chlorophenol] | 5.6% | 6.9% | 
5 | Cc1ccccc1O [2-Methylphenol] | 2.6% | 3.0% | 
6 | Cc1ccccc1N [o-Toluidine] | 4.8% | 4.0% | 
7 | Cc1ccc(C)c(C)c1 [1,2,4-Trimethyl benzene] | 70.6% | 55.8% | 
8 | O=NN1CCOCC1 [n-Nitrosomorpholine] | 3.5% | 4.2% | 
9 | CN(C)N=O [n-Nitrosodi-methylamine] | 7.3% | 2.6% | 
10 | OCc1ccccc1 [Benzyl alcohol] | 5.6% | 4.2% | 
11 | CCC(C)=O [2-Butanone] |  |  | Recovery, H2O/Oil 5 mL [2]: 47 ± 15%; Recovery, Water 5 mL [2]: 79 ± 45%; Recovery, Water 20 mL [2]: 88 ± 13%; Recovery, Soil/Oil [3]: 60 ± 63%
12 | CC(C)(C)c1ccccc1 [tert-Butlybenzene] | 70.6% | 55.5% | 
13 | c1ccncc1 [Pyridine] | 9.4% | 8.9% | 
14 | C=C(C)C(=O)OC [Methyl methacrylate] | 72.6% | 50.6% | 
15 | C=C(C)C#N [Methy acrylonitrile] | 74.7% | 64.2% | 
16 | Cc1cc(C)cc(C)c1 [1,3,5-Trimethyl benzene] | 72.1% | 57.3% | 
17 | CCCc1ccccc1 [n-Propylbenzene] | 72.0% | 58.6% | 
18 | Clc1cccc(Cl)c1 [1,3-Dichlorobenzene] | 69.4% and 70.4% | 54.1% and 53.3% | 
19 | Clc1cc(Cl)c(Cl)c(Cl)c1Cl [Pentachlorobenzene] | 17.1% | 4.6% | 

Row | Structure (SMILES) | 5 G SOIL RECOVERY [1] | 5 ML WATER RECOVERY [1] | other results
20 | Clc1ccc(Cl)cc1 [1,4-dichlorobenzene, reference compound] |  |  | Recovery, H2O/Oil 5 mL [2]: 29 ± 9%; Recovery, Water 5 mL [2]: 109 ± 19%; Recovery, Water 20 mL [2]: 97 ± 20%; Recovery, Soil/Oil Water [3]: 22 ± 4%; Recovery, Soil/Oil [3]: 17 ± 4%; Recovery, Soil/Water ([3]; 5 g soil + 5 ml water slurry, 10 min): 79 ± 13%
21 | CCC(C)c1ccccc1 (stereo not shown) [sec-butylbenzene] | 70.5% | 56.2% | 
22 | C=CC#N [Acrylonitrile] | 61.8% | 30.3% | 
23 | ClCCOCOCCCl [bis-2-Chloroethoxy methane] | 3.7% | 4.3% | 
24 | c1ccc2ccccc2c1 [Naphthalene] | 22.7% | 18.9% | 
25 | Brc1ccccc1 [Bromobenzene] | 77.2% | 56.6% | 
26 | Clc1ccc(Cl)c(Cl)c1 [1,2,4-Trichloro-benzene] | 32.5% | 29.3% | 
27 | CCCCc1ccccc1 [n-Butylbenzene] | 59.2% | 55.0% | 
28 | C=C(C)C(=O)OCC [Ethyl methacrylate] | 50.7% | 39.7% | 
29 | CC(=O)c1ccccc1 [Acetophenone] | 8.3% | 6.2% | 
30 | O=NN1CCCC1 [n-Nitroso-pyrrolidine] | 3.4% | 3.2% | 
31 | Cc1ccc(C(C)C)cc1 [para-iso-Propyl toluene] | 63.8% | 56.6% | 
32 | CC(C)c1ccccc1 [iso-Propylbenzene] | 72.8% | 64.1% | 
33 | Clc1cccc(Cl)c1Cl [1,2,3-Trichloro benzene] | 25.6% | 21.8% | 
34 | Oc1ccccc1 [Phenol] | 4.6% | 6.2% | 
35 | c1ccc2c(c1)oc1ccccc12 [Dibenzofuran] | 15.9% | 3.1% | 
36 | BrCBr [Dibromomethane] | 75.2% | 50.5% | 
37 | CCC#N [Propionitrile] | 49.7% | 19.0% | 
38 | Cc1ccc(Cl)cc1 [4-Chlorotoluene] | 73.5% | 56.6% | 

Row | Structure (SMILES) | 5 G SOIL RECOVERY [1] | 5 ML WATER RECOVERY [1] | other results
39 | C=CCCl [Allyl chloride] | 81.0% | 85.9% | 
40 | CCOCC [Diethyl ether] | 83.2% | 77.5% | 
41 | CCN(C)N=O [n-Nitrosodi-methylethylamine] | 6.3% | 6.0% | 
42 | C1COCCO1 [1,4-Dioxane] | 24.3% | 15.6% | 
43 | CCCN(CCC)N=O [n-Nitroso-di-n-propylamine] | 5.6% | 4.4% | 
44 | O=NN1CCCCC1 [n-Nitroso-piperidine] | 4.1% | 4.5% | 
45 | Cc1ccccn1 [2-Picoline] | 4.1% | 11.7% | 
46 | Cc1ccc(O)c(C)c1 [2,4-Dimethylphenol] | 7.5% | 1.7% | 
47 | Cl/C=C/Cl [trans-1,2-Dichloroethene] |  |  | Method Detection Limit, External Standard Method ([4]; average of three nonconsecutive-day studies): 3.0 PPb; Method Detection Limit, Internal Standard Method ([4]; d3-vinylchloride internal standard): 2.1 PPb; Recovery, H2O/Oil 20 mL [2]: 70 ± 16%; Recovery, H2O/Oil 5 mL [2]: 103 ± 17%; Recovery, Water 5 mL [2]: 84 ± 6%; Recovery, Water 20 mL [2]: 88 ± 11%; MDL, External Standard Method [5]: 3.2 ppb; MDL, Internal Standard Method [5]: 2.2 ppb
48 | Clc1ccccc1Cl [1,2-Dichlorobenzene] | 66.7% | 52.1% | 
49 | CC#N [Acetonitrile] | 76.9% | 68.0% | 
50 | Nc1ccc(Cl)cc1 [4-Chloroaniline] | 15.4% | 5.0% | 
51 | CC(C)=O [Acetone] |  |  | Recovery, H2O/Oil 20 mL [2]: 87 ± 42%; Recovery, H2O/Oil 5 mL [2]: 95 ± 35%; Recovery, Water 5 mL [2]: 70 ± 23%; Recovery, Water 20 mL [2]: 60 ± 41%; Recovery, Soil/Oil Water [3]: 50 ± 13%
52 | CCCCN(CCCC)N=O [n-Nitroso-di-n-butylamine] | 8.3% | 1.4% | 
53 | Nc1ccccc1[N+](=O)[O-] [2-Nitroaniline] | 4.4% | 6.7% | 
54 | Cc1cc(O)ccc1Cl [4-Chloro-3-methyl phenol] | 14.2% | 5.4% | 
55 | CCN(CC)N=O [n-Nitroso-di-n-ethylamine] | 7.3% | 5.6% | 
56 | CC(C)CO [Isobutanol] | 21.0% | 12.2% | 
